Measurements taken from PMC12302648.
Results are given in words; binding and its absence hold for the method and conditions named. Binding seen in cells or lysates may run through a third protein. A yes stands for co-enrichment or nearness to the bait. Other partners may have been found.

Target: T1, Fibroblast growth factor 13 (FGF13), endogenous in mouse primary neurons (mouse (endogenous in primary neurons)) (UniProt P70377)
T1 sequence: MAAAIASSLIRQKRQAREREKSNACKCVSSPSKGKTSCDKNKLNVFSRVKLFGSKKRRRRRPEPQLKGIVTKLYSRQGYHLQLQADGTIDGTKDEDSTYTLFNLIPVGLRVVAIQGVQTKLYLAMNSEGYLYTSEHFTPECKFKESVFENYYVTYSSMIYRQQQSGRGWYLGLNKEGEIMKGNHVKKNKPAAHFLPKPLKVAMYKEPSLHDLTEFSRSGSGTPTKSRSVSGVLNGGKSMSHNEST
Test: affinity purification with mass spectrometry; anti-FGF13 immunoprecipitate from control and MPP+-treated primary neurons; label-free mass spectrometry (Q Exactive), searched against UniProtKB

binding: binds
B1: MTCH2, endogenous in mouse primary neurons (protein, UniProt Q791V5 1-303)
chain: MADAASQVLLGSGLTILSQPLMYVKVLIQVGYEPLPPTIGRNIFGRQVCQLPGLFCYAQHIASIDGRRGLFTGLTPRLCSGVLGTVVHGKVLQYYQESEKPEELGSVTVQKEYSSSFDRVIKETTREMIARSAATLITHPFHVITLRSMVQFIGRESKYCGLCDSIVTIYREEGIVGFFAGLIPRLLGDIISLWLCNSLAYLINTYALDSGVSTMNEMKSYSQAVTGFFASMLTYPFVLVSNLMAVNNCGLAGGSPPYSPIYTSWIDCWCMLQKAGNMSRGNSLFFRKVPCGKTYCYDLRMLI
